Measured values reported in PubChem BioAssay AID2685 (National Center for Advancing Translational Sciences (NCATS), 2010).
The list shows a part of the results. The main result of the screen is listed elsewhere. These columns were measured beside it and carry no call. The list favours compounds with an active or inconclusive main result. The note in brackets gives the kind of curve behind each potency; many fits are weak.

Test: qHTS Assay for Lipid Storage Modulators in Drosophila S3 Cells;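 for cell number change: cells counted by Cell Tracker Red CMTPX staining in the red channel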
Details: BODIPY lipid droplet fluorescence, 18-24 h; for cell number change: measured here: cell count max response, cells fed with added oleic acid
Summary of the method: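 Laser-scanning cytometry quantifies lipid droplet accumulation (500–530 nm total intensity; droplet/cell object ratio) in oleic acid-fed (400 uM added) Drosophila S3 cells treated with a concentration series. 20 uM Triacsin C defined 100% inhibition.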

[1] = measured here: lipid fluorescence (Fed channel) AC50, cells fed with added oleic acid
[2] = measured here: cell number channel AC50, cells fed with added oleic acid

Structure (SMILES): Cc1nc(NC(=O)C2CCCCC2C(=O)O)sc1C (stereo not drawn)
- cell number change: 23.1%
- AC50 [1]: 0.082 µM [rising, full curve, poor fit]

Structure (SMILES): O=S(=O)(Nc1c(F)cccc1F)c1ccc(Cl)nc1
- cell number change: -69%
- AC50 [2]: 29.1 µM [falling, single point]
- AC50 [1]: 25.9 µM [falling, partial curve]

Structure (SMILES): Cc1nc(NS(=O)(=O)c2ccccc2)sc1C(C)(C)C
- cell number change: 9.99%
- AC50 [1]: 2.31 µM [rising, full curve, poor fit]

Structure (SMILES): Cc1cc(C(=O)N2CCOCC2)n(-c2ccccc2)n1
- cell number change: 33.7%
- AC50 [2]: 6.51 µM [rising, single point]

Structure (SMILES): COc1ccc(C(=O)CCNc2ccc(F)cc2)cc1
- cell number change: 27.5%
- AC50 [2]: 1.84 µM [rising, full curve, poor fit]
- AC50 [1]: 2.59 µM [rising, partial curve, poor fit]

Structure (SMILES): COc1ccc(C(=O)N/C(=C\c2cccc3ccccc23)C(=O)N2CCN(C)CC2)cc1OC
- cell number change: 2.49%

Structure (SMILES): O=C(CCc1ccccc1)NCCc1nc2ccccc2[nH]1
- cell number change: 82.2%
- AC50 [2]: 14.6 µM [rising, partial curve, poor fit]
- AC50 [1]: 29.1 µM [rising, single point]

Structure (SMILES): Cc1ccc2nc(Cl)c3nnnn3c2c1
- cell number change: -59.6%
- AC50 [2]: 16.4 µM [falling, partial curve]
- AC50 [1]: 16.4 µM [falling, partial curve]

Structure (SMILES): O=C(COCc1cc(-c2ccc3c(c2)OCO3)on1)N1CCN(c2cccc(Cl)c2)CC1
- cell number change: 42.4%
- AC50 [2]: 1.64 µM [rising, partial curve]

Structure (SMILES): Cc1cc(C)c(NC(N)=S)c(C)c1
- cell number change: -14%
- AC50 [1]: 0.164 µM [falling, full curve, poor fit]

Structure (SMILES): COc1ccc(-c2noc(C3CCCN(C(=O)c4ccccc4OC)C3)n2)cc1 (stereo not drawn)
- cell number change: -13%

Structure (SMILES): CS(=O)(=O)Nc1ccc(C(=O)N2CCCC2)cc1
- AC50 [1]: 9.2 µM [rising, single point]

Structure (SMILES): Cc1ccc(N(C)C(=O)N2CCN(S(=O)(=O)c3ccc(C)cc3)CC2)cc1
- cell number change: 0.921%
- AC50 [1]: 16.4 µM [rising, single point]

Structure (SMILES): Cc1cc(/C=N/Nc2ccc([N+](=O)[O-])cn2)c(C)n1-c1cccc(C(=O)O)c1
- cell number change: 15%
- AC50 [1]: 0.00461 µM [rising, full curve, poor fit]

Structure (SMILES): O=C(NC1CCC(=O)N(CCOc2ccccc2)CC1)OCc1ccccc1 (stereo not drawn)
- cell number change: 23.3%
- AC50 [1]: 2.06 µM [rising, partial curve]

Structure (SMILES): Cc1cc(=O)oc(C)c1C(=O)N1CCN(C(c2ccccc2)c2ccccc2)CC1
- cell number change: -5.61%
- AC50 [1]: 0.731 µM [rising, full curve, poor fit]

Structure (SMILES): COC(=O)Nc1ccc(SCC(=O)c2ccccc2)cc1
- cell number change: 27.4%
- AC50 [2]: 0.0517 µM [rising, full curve]
- AC50 [1]: 0.291 µM [rising, full curve]

Structure (SMILES): O=C(Oc1ccc(-c2nnco2)cc1)C1CCN(C(=O)c2ccc(F)cc2)CC1
- cell number change: -6.91%
- AC50 [1]: 0.731 µM [falling, single point]

Structure (SMILES): CCCCn1nnnc1SCC(=O)Nc1sc2c(c1C#N)CCCC2
- cell number change: 8.56%
- AC50 [1]: 0.259 µM [rising, full curve, poor fit]

Structure (SMILES): O=S1(=O)CCC(NCC2CCCO2)C1 (stereo not drawn)
- cell number change: -5.79%

Structure (SMILES): Cc1[nH]n(-c2ccccc2)c(=O)c1N=Nc1c(Cl)cccc1Cl
- cell number change: -0.338%

Structure (SMILES): CC(Oc1ccc(Cl)cc1Cl)C(=O)OCC(=O)c1c(N)n(C)c(=O)n(C)c1=O (stereo not drawn)
- cell number change: 24.2%
- AC50 [2]: 0.013 µM [rising, full curve, poor fit]

Structure (SMILES): O=C(NNc1cccc(Cl)n1)Nc1ccccc1F
- cell number change: 0.226%
- AC50 [1]: 29.1 µM [rising, single point]

Structure (SMILES): NC(=O)c1nsc(C(=O)N(CC(=O)NC2CCCCC2)c2ccc(Cl)cc2)c1N
- AC50 [1]: 32.6 µM [falling, partial curve]

Structure (SMILES): COc1ccccc1N(Cc1ccccc1)S(=O)(=O)c1cccc(C(=O)NC2CC(C)(C)NC(C)(C)C2)c1
- cell number change: -9.19%
- AC50 [2]: 0.13 µM [falling, full curve, poor fit]
- AC50 [1]: 8.2 µM [falling, partial curve]

Structure (SMILES): CC(C)C(=O)NC(=O)COC(=O)/C=C/c1cccs1
- cell number change: 28.9%
- AC50 [1]: 35.5 µM [rising, single point]

Structure (SMILES): Cc1ccc(-c2nc3ccccc3nc2Cl)cc1
- cell number change: 19%

Structure (SMILES): COC(=O)CSc1nc2nc(C)cc(C)n2n1
- cell number change: 13.6%
- AC50 [1]: 3.66 µM [falling, full curve]

Structure (SMILES): CCCCSc1nnc(CSc2ncccn2)n1C
- cell number change: 30%
- AC50 [1]: 3.66 µM [rising, full curve, poor fit]

Structure (SMILES): COC(=O)c1ccc(-c2nc(-c3cccs3)no2)cc1
- AC50 [1]: 0.651 µM [rising, full curve, poor fit]

Structure (SMILES): COc1ccccc1C(CNc1nc(C(F)(F)F)nc2ccccc12)N(C)C (stereo not drawn)
- cell number change: 8.82%

Structure (SMILES): Clc1ccc2ccc3cccnc3c2n1
- cell number change: -22.5%

Structure (SMILES): CCOc1ccc(N2C(=O)CCC2=O)cc1
- cell number change: -28.8%
- AC50 [2]: 0.517 µM [falling, full curve]
- AC50 [1]: 0.82 µM [falling, full curve]

Structure (SMILES): COc1ccc(C2=NCCc3cc(OC)c(OC)cc32)cc1OC
- cell number change: -15.1%
- AC50 [1]: 2.06 µM [falling, partial curve]

Structure (SMILES): Cc1ccc(NC(=O)CCS(=O)(=O)c2cc3c(cc2Cl)NC(=O)CO3)cc1
- cell number change: -4.13%
- AC50 [1]: 29.1 µM [rising, single point]

Structure (SMILES): O/N=C/c1cn(-c2ccc(Cl)cc2)nn1
- cell number change: 24.9%

Structure (SMILES): CCc1nnc(NC(=O)c2cccc(S(=O)(=O)N3CC(c4ccccc4)CC3=O)c2)s1 (stereo not drawn)
- cell number change: 3.3%
- AC50 [1]: 0.651 µM [falling, single point]

Structure (SMILES): Cc1cccc(C)c1NC(=O)COC(=O)CN1C(=O)C2CCCCC2C1=O (stereo not drawn)
- cell number change: 16.4%
- AC50 [1]: 3.66 µM [rising, full curve, poor fit]

Structure (SMILES): CCn1c2ccccc2c2c3ncc4cccn4c3ccc21
- cell number change: -26.5%
- AC50 [1]: 29.1 µM [falling, single point]

Structure (SMILES): COc1ccc(S(=O)(=O)n2cccc2)c(OC)c1
- cell number change: -21.4%

Structure (SMILES): Cc1ccc(NC(=O)CSc2nnc(-c3cccs3)o2)cc1S(=O)(=O)N(C)C
- cell number change: 126%
- AC50 [2]: 29.1 µM [rising, single point]
- AC50 [1]: 29.1 µM [rising, partial curve, poor fit]
